Experimental data: the supplement of paper PMC11546906
Structures can show the parent of a compound that is named as a salt. The list shows a part of the results. This data set is noisy: repeats of one test often differ as much as different tests do.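 FDA-approved drugs were each paired with colistin at one-eighth its MIC and screened against a multidrug-resistant, mcr-1-positive clinical E. coli isolate, with OD600 read after 24 h. Drug-free bacteria served as growth control, plain broth as blank. Combinations were active if OD600 dropped below 0.2.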

The compounds below were run on Escherichia coli 42 (mcr-1-positive clinical isolate) (assay: OD600 after 24 h growth with compound plus colistin (absorbance units (OD600)); higher = more bacterial growth (less inhibition)). Settings: first compound 25 µM; colistin concentration 0.5 ug/mL; incubation time 24 h; 37 °C.

OD600, inactive:
COc1cc([C@@H]2c3cc4c(cc3[C@@H](O[C@@H]3O[C@@H]5CO[C@@H](C)O[C@H]5[C@H](O)[C@H]3O)[C@H]3COC(=O)[C@H]23)OCO4)cc(OC)c1O [Etoposide] + CCC(C)CCCC(=O)N[C@@H](CCN)C(=O)N[C@H](C(=O)N[C@@H](CCN)C(=O)N[C@H]1CCNC(=O)[C@H]([C@@H](C)O)NC(=O)[C@H](CCN)NC(=O)[C@H](CCN)NC(=O)[C@H](CC(C)C)NC(=O)[C@@H](CC(C)C)NC(=O)[C@H](CCN)NC1=O)[C@@H](C)O [colistin] 1.02, CCN(CC)C(=O)/C(C#N)=C/c1cc(O)c(O)c([N+](=O)[O-])c1 [Entacapone] + CCC(C)CCCC(=O)N[C@@H](CCN)C(=O)N[C@H](C(=O)N[C@@H](CCN)C(=O)N[C@H]1CCNC(=O)[C@H]([C@@H](C)O)NC(=O)[C@H](CCN)NC(=O)[C@H](CCN)NC(=O)[C@H](CC(C)C)NC(=O)[C@@H](CC(C)C)NC(=O)[C@H](CCN)NC1=O)[C@@H](C)O [colistin] 1.22, C[C@]12C=CC(=O)N[C@@H]1CC[C@@H]1[C@@H]2CC[C@]2(C)[C@@H](C(=O)Nc3cc(C(F)(F)F)ccc3C(F)(F)F)CC[C@@H]12 [Dutasteride] + CCC(C)CCCC(=O)N[C@@H](CCN)C(=O)N[C@H](C(=O)N[C@@H](CCN)C(=O)N[C@H]1CCNC(=O)[C@H]([C@@H](C)O)NC(=O)[C@H](CCN)NC(=O)[C@H](CCN)NC(=O)[C@H](CC(C)C)NC(=O)[C@@H](CC(C)C)NC(=O)[C@H](CCN)NC1=O)[C@@H](C)O [colistin] 1.19, COc1ccc2c(c1)c(CC(=O)O)c(C)n2C(=O)c1ccc(Cl)cc1 [Indomethacin] + CCC(C)CCCC(=O)N[C@@H](CCN)C(=O)N[C@H](C(=O)N[C@@H](CCN)C(=O)N[C@H]1CCNC(=O)[C@H]([C@@H](C)O)NC(=O)[C@H](CCN)NC(=O)[C@H](CCN)NC(=O)[C@H](CC(C)C)NC(=O)[C@@H](CC(C)C)NC(=O)[C@H](CCN)NC1=O)[C@@H](C)O [colistin] 0.941, Nc1ccc(S(=O)(=O)Nc2nccs2)cc1 [Sulfathiazole] + CCC(C)CCCC(=O)N[C@@H](CCN)C(=O)N[C@H](C(=O)N[C@@H](CCN)C(=O)N[C@H]1CCNC(=O)[C@H]([C@@H](C)O)NC(=O)[C@H](CCN)NC(=O)[C@H](CCN)NC(=O)[C@H](CC(C)C)NC(=O)[C@@H](CC(C)C)NC(=O)[C@H](CCN)NC1=O)[C@@H](C)O [colistin] 1.1, CC1(C)S[C@@H]2[C@H](NC(=O)C(C(=O)O)c3ccccc3)C(=O)N2[C@H]1C(=O)O (stereo partly drawn) [Carbenicillin disodium] + CCC(C)CCCC(=O)N[C@@H](CCN)C(=O)N[C@H](C(=O)N[C@@H](CCN)C(=O)N[C@H]1CCNC(=O)[C@H]([C@@H](C)O)NC(=O)[C@H](CCN)NC(=O)[C@H](CCN)NC(=O)[C@H](CC(C)C)NC(=O)[C@@H](CC(C)C)NC(=O)[C@H](CCN)NC1=O)[C@@H](C)O [colistin] 1.12, COc1ccccc1OCCNCC(O)COc1cccc2[nH]c3ccccc3c12 (stereo not drawn) [Carvedilol phosphate hemihydrate] + CCC(C)CCCC(=O)N[C@@H](CCN)C(=O)N[C@H](C(=O)N[C@@H](CCN)C(=O)N[C@H]1CCNC(=O)[C@H]([C@@H](C)O)NC(=O)[C@H](CCN)NC(=O)[C@H](CCN)NC(=O)[C@H](CC(C)C)NC(=O)[C@@H](CC(C)C)NC(=O)[C@H](CCN)NC1=O)[C@@H](C)O [colistin] 0.764, CN(Cc1ccc(C(C)(C)C)cc1)Cc1cccc2ccccc12 [Butenafine hydrochloride] + CCC(C)CCCC(=O)N[C@@H](CCN)C(=O)N[C@H](C(=O)N[C@@H](CCN)C(=O)N[C@H]1CCNC(=O)[C@H]([C@@H](C)O)NC(=O)[C@H](CCN)NC(=O)[C@H](CCN)NC(=O)[C@H](CC(C)C)NC(=O)[C@@H](CC(C)C)NC(=O)[C@H](CCN)NC1=O)[C@@H](C)O [colistin] 0.88, CC(=O)N(O)CCCCCNC(=O)CCC(=O)N(O)CCCCCNC(=O)CCC(=O)N(O)CCCCCN [Deferoxamine Mesylate] + CCC(C)CCCC(=O)N[C@@H](CCN)C(=O)N[C@H](C(=O)N[C@@H](CCN)C(=O)N[C@H]1CCNC(=O)[C@H]([C@@H](C)O)NC(=O)[C@H](CCN)NC(=O)[C@H](CCN)NC(=O)[C@H](CC(C)C)NC(=O)[C@@H](CC(C)C)NC(=O)[C@H](CCN)NC1=O)[C@@H](C)O [colistin] 0.846, C[C@H](CCC(=O)O)[C@H]1CC[C@H]2[C@@H]3CC[C@@H]4C[C@H](O)CC[C@]4(C)[C@H]3CC[C@]12C [Lithocholic acid] + CCC(C)CCCC(=O)N[C@@H](CCN)C(=O)N[C@H](C(=O)N[C@@H](CCN)C(=O)N[C@H]1CCNC(=O)[C@H]([C@@H](C)O)NC(=O)[C@H](CCN)NC(=O)[C@H](CCN)NC(=O)[C@H](CC(C)C)NC(=O)[C@@H](CC(C)C)NC(=O)[C@H](CCN)NC1=O)[C@@H](C)O [colistin] 0.817, CC(C)(Sc1cc(C(C)(C)C)c(O)c(C(C)(C)C)c1)Sc1cc(C(C)(C)C)c(O)c(C(C)(C)C)c1 [Probucol] + CCC(C)CCCC(=O)N[C@@H](CCN)C(=O)N[C@H](C(=O)N[C@@H](CCN)C(=O)N[C@H]1CCNC(=O)[C@H]([C@@H](C)O)NC(=O)[C@H](CCN)NC(=O)[C@H](CCN)NC(=O)[C@H](CC(C)C)NC(=O)[C@@H](CC(C)C)NC(=O)[C@H](CCN)NC1=O)[C@@H](C)O [colistin] 1.13, CCOc1nc2cccc(C(=O)O)c2n1Cc1ccc(-c2ccccc2-c2nnn[nH]2)cc1 [Candesartan] + CCC(C)CCCC(=O)N[C@@H](CCN)C(=O)N[C@H](C(=O)N[C@@H](CCN)C(=O)N[C@H]1CCNC(=O)[C@H]([C@@H](C)O)NC(=O)[C@H](CCN)NC(=O)[C@H](CCN)NC(=O)[C@H](CC(C)C)NC(=O)[C@@H](CC(C)C)NC(=O)[C@H](CCN)NC1=O)[C@@H](C)O [colistin] 1.15, O=C1CCC(N2C(=O)c3ccccc3C2=O)C(=O)N1 (stereo not drawn) [Thalidomide] + CCC(C)CCCC(=O)N[C@@H](CCN)C(=O)N[C@H](C(=O)N[C@@H](CCN)C(=O)N[C@H]1CCNC(=O)[C@H]([C@@H](C)O)NC(=O)[C@H](CCN)NC(=O)[C@H](CCN)NC(=O)[C@H](CC(C)C)NC(=O)[C@@H](CC(C)C)NC(=O)[C@H](CCN)NC1=O)[C@@H](C)O [colistin] 1.07, O=C(OC[C@H]1O[C@@H](OC(=O)c2cc(O)c(O)c(OC(=O)c3cc(O)c(O)c(O)c3)c2)[C@H](OC(=O)c2cc(O)c(O)c(OC(=O)c3cc(O)c(O)c(O)c3)c2)[C@@H](OC(=O)c2cc(O)c(O)c(OC(=O)c3cc(O)c(O)c(O)c3)c2)[C@@H]1OC(=O)c1cc(O)c(O)c(OC(=O)c2cc(O)c(O)c(O)c2)c1)c1cc(O)c(O)c(OC(=O)c2cc(O)c(O)c(O)c2)c1 [Tannic acid] + CCC(C)CCCC(=O)N[C@@H](CCN)C(=O)N[C@H](C(=O)N[C@@H](CCN)C(=O)N[C@H]1CCNC(=O)[C@H]([C@@H](C)O)NC(=O)[C@H](CCN)NC(=O)[C@H](CCN)NC(=O)[C@H](CC(C)C)NC(=O)[C@@H](CC(C)C)NC(=O)[C@H](CCN)NC1=O)[C@@H](C)O [colistin] 1.12, Cc1ccc(N(CC2=NCCN2)c2cccc(O)c2)cc1 [Phentolamine mesylate] + CCC(C)CCCC(=O)N[C@@H](CCN)C(=O)N[C@H](C(=O)N[C@@H](CCN)C(=O)N[C@H]1CCNC(=O)[C@H]([C@@H](C)O)NC(=O)[C@H](CCN)NC(=O)[C@H](CCN)NC(=O)[C@H](CC(C)C)NC(=O)[C@@H](CC(C)C)NC(=O)[C@H](CCN)NC1=O)[C@@H](C)O [colistin] 1.05, CC(C)N1CCN(c2ccc(OCC3COC(Cn4cncn4)(c4ccc(Cl)cc4Cl)O3)cc2)CC1 (stereo not drawn) [Terconazole] + CCC(C)CCCC(=O)N[C@@H](CCN)C(=O)N[C@H](C(=O)N[C@@H](CCN)C(=O)N[C@H]1CCNC(=O)[C@H]([C@@H](C)O)NC(=O)[C@H](CCN)NC(=O)[C@H](CCN)NC(=O)[C@H](CC(C)C)NC(=O)[C@@H](CC(C)C)NC(=O)[C@H](CCN)NC1=O)[C@@H](C)O [colistin] 1.01, CCC[C@@H]1C[C@@H](C(=O)N[C@@H]([C@H]2O[C@H](SC)[C@H](O)[C@@H](O)[C@H]2O)[C@@H](C)O)N(C)C1 [Lincomycin hydrochloride monohydrate] + CCC(C)CCCC(=O)N[C@@H](CCN)C(=O)N[C@H](C(=O)N[C@@H](CCN)C(=O)N[C@H]1CCNC(=O)[C@H]([C@@H](C)O)NC(=O)[C@H](CCN)NC(=O)[C@H](CCN)NC(=O)[C@H](CC(C)C)NC(=O)[C@@H](CC(C)C)NC(=O)[C@H](CCN)NC1=O)[C@@H](C)O [colistin] 1.1, COc1ccc2cc([C@H](C)C(=O)O)ccc2c1 [Naproxen sodium] + CCC(C)CCCC(=O)N[C@@H](CCN)C(=O)N[C@H](C(=O)N[C@@H](CCN)C(=O)N[C@H]1CCNC(=O)[C@H]([C@@H](C)O)NC(=O)[C@H](CCN)NC(=O)[C@H](CCN)NC(=O)[C@H](CC(C)C)NC(=O)[C@@H](CC(C)C)NC(=O)[C@H](CCN)NC1=O)[C@@H](C)O [colistin] 1.05
